{"source": "patent US10471127B2", "about": "(Mederis Diabetes, LLC, priority 2011, dated 2019)", "test": "general procedure: Fmoc solid-phase peptide synthesis; Rink amide resin; DIC/HOBt", "settings": "whole synthesis, analytical hplc (30-60% CH3CN in 0.1% TFA)/mass spectrometry", "data": [{"substance": "His-Aib-Gln-Gly-Thr-Phe-Thr-Ser-Asp-Bip-Ser-Lys-Tyr-Leu-Glu-Ser-Lys(1'-dodecyl beta-D-glucuronyl)-NH2", "values": [{"measurement": "final HPLC purity", "result": 98.03, "unit": "%"}]}]}
